Test results reported in article PMC4099368.
Numbering of substitutions follows the chain as printed. Results are given in words; binding and its absence hold for the method and conditions named. Binding seen in cells or lysates may run through a third protein. Some entries that bind do so weakly or less than the wild type. Where a sequence is shown, tags or fusion partners need not be part of it.

By UniProt entry, the sequences of proteins in these tests, tags left out. Residues count along the entry.
UniProt P43694, residues 200-254: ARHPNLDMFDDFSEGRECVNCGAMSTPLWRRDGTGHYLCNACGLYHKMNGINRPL

Tests used:
[1] = molecular target: T1, GST-ZFPM2/FOG2 p.K737E (human) (UniProt Q8WW38); test: pull-down; GST-ZFPM2/FOG2 (wild type or mutant) bound to 200 µl glutathione resin (Pierce GST Protein Interaction Pull-Down kit), incubated with GATA4 fragment at 4°C; washed with 25 mM Tris-HCl pH 7.2, 150 mM NaCl; eluate on SDS-PAGE, Coomassie staining
T1 sequence: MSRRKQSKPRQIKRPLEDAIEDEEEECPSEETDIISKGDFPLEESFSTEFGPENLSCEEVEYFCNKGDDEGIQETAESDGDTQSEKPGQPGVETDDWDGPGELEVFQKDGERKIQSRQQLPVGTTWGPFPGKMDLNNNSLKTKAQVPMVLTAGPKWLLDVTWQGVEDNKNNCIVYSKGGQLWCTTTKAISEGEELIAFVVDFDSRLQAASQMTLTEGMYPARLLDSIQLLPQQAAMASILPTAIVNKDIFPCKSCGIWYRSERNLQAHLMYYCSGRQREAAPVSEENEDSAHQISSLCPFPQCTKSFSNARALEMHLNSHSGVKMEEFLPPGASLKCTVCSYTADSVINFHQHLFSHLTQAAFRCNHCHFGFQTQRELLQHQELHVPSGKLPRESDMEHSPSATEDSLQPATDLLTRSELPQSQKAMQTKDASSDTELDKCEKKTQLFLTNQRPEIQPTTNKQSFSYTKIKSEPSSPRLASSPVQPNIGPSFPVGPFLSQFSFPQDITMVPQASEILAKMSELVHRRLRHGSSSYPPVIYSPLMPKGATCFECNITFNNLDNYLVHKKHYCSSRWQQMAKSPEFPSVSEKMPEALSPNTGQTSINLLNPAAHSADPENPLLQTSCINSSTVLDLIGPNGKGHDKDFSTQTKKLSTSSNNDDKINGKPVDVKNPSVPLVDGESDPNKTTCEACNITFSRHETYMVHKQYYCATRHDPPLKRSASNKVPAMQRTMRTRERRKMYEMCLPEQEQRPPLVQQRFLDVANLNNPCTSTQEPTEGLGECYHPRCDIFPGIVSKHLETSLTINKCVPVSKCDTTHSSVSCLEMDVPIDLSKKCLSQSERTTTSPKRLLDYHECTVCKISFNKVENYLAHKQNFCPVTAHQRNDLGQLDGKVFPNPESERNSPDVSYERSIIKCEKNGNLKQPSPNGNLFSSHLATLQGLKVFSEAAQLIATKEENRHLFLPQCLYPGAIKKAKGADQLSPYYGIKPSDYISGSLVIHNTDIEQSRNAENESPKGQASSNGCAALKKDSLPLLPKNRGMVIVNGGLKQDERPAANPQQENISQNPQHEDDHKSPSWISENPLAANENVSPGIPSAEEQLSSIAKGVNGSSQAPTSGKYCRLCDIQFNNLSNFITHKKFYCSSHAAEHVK

[2] = molecular target: T2, GST-ZFPM2/FOG2 p.M703L (human) (UniProt Q8WW38); test: as above
T2 sequence: T1 sequence with M703L, E737K

binding [1]: binds
binding [2]: binds
Substance: N-terminal zinc-finger sequence of GATA4 (residues 200-254) (from UniProt P43694 200-254) (domain or fragment)
